Source: article doi:10.1101/2019.12.18.881763
These are yes or no findings as the source states them, for the method shown. In cells and extracts the contact can be indirect. Some entries that bind do so weakly or less than the wild type.

The chains behind the UniProt entries cited, without tags or fusion partners.
UniProt Q7JW27: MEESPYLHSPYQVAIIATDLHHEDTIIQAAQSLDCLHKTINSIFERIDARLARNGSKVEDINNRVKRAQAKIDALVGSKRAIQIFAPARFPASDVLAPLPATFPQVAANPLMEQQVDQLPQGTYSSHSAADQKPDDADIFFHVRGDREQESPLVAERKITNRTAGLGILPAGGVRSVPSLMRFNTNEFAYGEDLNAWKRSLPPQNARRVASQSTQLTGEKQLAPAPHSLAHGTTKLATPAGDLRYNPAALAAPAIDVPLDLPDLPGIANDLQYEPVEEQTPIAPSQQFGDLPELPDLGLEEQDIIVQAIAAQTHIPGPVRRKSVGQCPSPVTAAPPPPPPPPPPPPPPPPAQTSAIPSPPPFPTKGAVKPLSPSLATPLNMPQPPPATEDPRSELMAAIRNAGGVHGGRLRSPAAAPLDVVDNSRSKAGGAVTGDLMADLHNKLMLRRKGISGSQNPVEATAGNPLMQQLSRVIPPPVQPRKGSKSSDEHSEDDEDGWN

T1: Lamin B (Drosophila (endogenous in Kc167 cells)) (UniProt P08928)
T1 sequence: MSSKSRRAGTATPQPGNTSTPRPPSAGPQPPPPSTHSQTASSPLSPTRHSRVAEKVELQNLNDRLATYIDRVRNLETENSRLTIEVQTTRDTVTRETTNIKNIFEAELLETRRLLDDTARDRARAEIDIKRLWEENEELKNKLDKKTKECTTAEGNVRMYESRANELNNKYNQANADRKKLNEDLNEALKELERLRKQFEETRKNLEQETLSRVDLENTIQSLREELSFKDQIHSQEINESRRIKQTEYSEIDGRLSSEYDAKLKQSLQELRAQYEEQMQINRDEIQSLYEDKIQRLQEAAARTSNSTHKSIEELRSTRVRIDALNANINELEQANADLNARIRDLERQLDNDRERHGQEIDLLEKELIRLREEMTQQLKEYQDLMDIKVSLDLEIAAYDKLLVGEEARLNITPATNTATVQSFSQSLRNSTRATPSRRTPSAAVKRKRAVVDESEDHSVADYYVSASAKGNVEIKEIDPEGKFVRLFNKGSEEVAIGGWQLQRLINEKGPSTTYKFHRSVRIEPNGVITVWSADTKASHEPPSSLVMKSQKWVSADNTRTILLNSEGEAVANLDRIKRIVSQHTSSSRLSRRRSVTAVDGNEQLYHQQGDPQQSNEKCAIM

T2: Lamin C (Drosophila (endogenous in Kc167 cells)) (UniProt Q03427)
T2 sequence: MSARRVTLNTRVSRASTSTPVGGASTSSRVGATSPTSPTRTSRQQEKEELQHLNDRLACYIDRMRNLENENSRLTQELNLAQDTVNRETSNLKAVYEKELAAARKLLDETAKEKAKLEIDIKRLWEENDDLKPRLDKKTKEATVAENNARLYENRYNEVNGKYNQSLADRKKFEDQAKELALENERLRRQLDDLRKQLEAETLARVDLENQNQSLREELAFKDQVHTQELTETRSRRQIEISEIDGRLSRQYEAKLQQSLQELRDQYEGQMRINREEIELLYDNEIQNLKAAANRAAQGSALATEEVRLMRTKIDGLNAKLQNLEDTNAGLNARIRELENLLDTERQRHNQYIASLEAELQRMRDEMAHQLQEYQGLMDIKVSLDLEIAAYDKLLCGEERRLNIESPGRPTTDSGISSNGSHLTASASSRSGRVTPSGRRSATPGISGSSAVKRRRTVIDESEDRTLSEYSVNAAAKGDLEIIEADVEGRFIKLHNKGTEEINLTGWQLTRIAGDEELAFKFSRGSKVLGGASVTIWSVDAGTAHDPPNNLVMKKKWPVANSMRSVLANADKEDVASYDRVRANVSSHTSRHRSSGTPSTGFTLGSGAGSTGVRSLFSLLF

T3: CCDC53 (Drosophila (endogenous in Kc167 cells)) (UniProt Q9VLT8)
T3 sequence: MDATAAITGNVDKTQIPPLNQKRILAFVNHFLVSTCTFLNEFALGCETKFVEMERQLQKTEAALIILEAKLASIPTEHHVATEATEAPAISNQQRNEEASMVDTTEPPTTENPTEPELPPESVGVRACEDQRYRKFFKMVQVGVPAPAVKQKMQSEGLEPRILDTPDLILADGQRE


How the values were obtained:
[1] = biological target: GST Wash (wildtype) (Drosophila) (UniProt Q7JW27); assay: pull-down
[2] = biological target: T1, Lamin B (Drosophila (endogenous in Kc167 cells)); assay: co-IP
[3] = biological target: Wash (Drosophila (endogenous in Kc167 cells)) (UniProt Q7JW27); assay: co-IP
[4] = biological target: T2, Lamin C (Drosophila (endogenous in Kc167 cells)); assay: co-IP
[5] = biological target: T3, CCDC53 (Drosophila (endogenous in Kc167 cells)); assay: co-IP

Molecule | binding [1] | binding [2] | binding [3] | binding [4] | binding [5]
35S-labeled in vitro translated Wash (from UniProt Q7JW27 1-499) | binds |  |  |  | 
35S-labeled in vitro translated CCDC53 (from UniProt Q9VLT8 1-176) | binds |  |  |  | 
CCDC53 (protein, UniProt Q9VLT8 1-176) MDATAAITGNVDKTQIPPLNQKRILAFVNHFLVSTCTFLNEFALGCETKFVEMERQLQKTEAALIILEAKLASIPTEHHVATEATEAPAISNQQRNEEASMVDTTEPPTTENPTEPELPPESVGVRACEDQRYRKFFKMVQVGVPAPAVKQKMQSEGLEPRILDTPDLILADGQRE |  | no binding | binds | no binding | 
Strumpellin (protein, UniProt Q9VUY8 1-1191) MSFLDDNNACGQNLLNIVSVGNSIIAEILRLKDYVPSIYRLDNKADKAKYGELILDFSYFKIAEDHERRIEQSPELTELDDEARAQLPLITRFYLAFQSIHHYASDLQQYIEELNTGYYIQQTLETVLQEEEGRQLLCESLYLFGVILLMVDFHIPGDVRERLLIAYYRYSGGDATPSGDESNIHDVCLLLRSTGYVHPSIAAKVLGLGGKQAGARAASLVVPRYPEAYFSRFRFDENFVDLVVARLRCDDIYNQLNLYPHPAHRSTALSTQAAMLYVCLYFCPQVLHSQGSQMREIVDKFFCDNWTISVYMGMTVNLVDAWLDFKAARSAIENVISPPAIKALCQQQKEQLGKITQKTQEIVREGVLNDNFVLEHANKIIHLMRQSNVLLRWFCLHTSREVFIFAHTATLTGQVQKCVLHELQFNRNTLYNLLLNCSQMELSVREFLAEIQQTKEERWTKSREEAMQRLNELSEAFAGSRPLSKIEQNPQLQQWFGEVAGRLQKLELSRPQKSGRLIIQVMQALDDVQEYHNLHSNMLVKQQLQETRDMLNQMAQLINLKEDIEIHIQMITDFSYAWHLLQFDFTPPMQEHIKRQPQAVIGIRAVFLKLASTLEVPLMRINQARSEDLVSVSNYYSTELANFLRRVLQIVPETMFSILAKIIYLLTNVIKEFPTKVEKERLKDYAQFEERAKVAQLTNSIAVFTKGILMMKTTLVGVIELDPKQLLEDGIRKELVNHLANAYNLGLIFTPEKGKTPVQLLQQKLQALAKTIEGYRRSFEYIEDYLRVQGLRILLEESQRIINYNVEKECNAFLRNKVQEFQSEHQSQIIPIPNFPPLLGDPSNNFIGRLAHEILRCTDPKQTIFLDLKSTWYEKKAPHQEVLAGSGFFEILREALAPAGMVGLERLYAHMLADELKRNLERLQRNLTSDRMWVDTLAALTRELEARDFPTPEVSKQPLKYYQAYTQRWLKVWPTLLDWVLCIGQKQLLRREIAGELSFSSKCDAKLLENTADTLNKALLLELSLSKDLCDEKGVVMLTELQETLLYTGNFEPLEQVFLITKNTHNMALFMFLFTIAHLGRMQHSTITDCLLPKSAKDNIDNVPFIVGLVTILQQFHKNVKMLYISYMSQYVVTVSEAQLLDKEILGPEVVTALHFLLAFIRIARLPLGVLEQRIPNIILSEYEYLSTLLK |  | no binding | binds | no binding | binds
35S-labeled in vitro translated Lamin C (protein, UniProt Q03427 1-621, 35S-labeled) MSARRVTLNTRVSRASTSTPVGGASTSSRVGATSPTSPTRTSRQQEKEELQHLNDRLACYIDRMRNLENENSRLTQELNLAQDTVNRETSNLKAVYEKELAAARKLLDETAKEKAKLEIDIKRLWEENDDLKPRLDKKTKEATVAENNARLYENRYNEVNGKYNQSLADRKKFEDQAKELALENERLRRQLDDLRKQLEAETLARVDLENQNQSLREELAFKDQVHTQELTETRSRRQIEISEIDGRLSRQYEAKLQQSLQELRDQYEGQMRINREEIELLYDNEIQNLKAAANRAAQGSALATEEVRLMRTKIDGLNAKLQNLEDTNAGLNARIRELENLLDTERQRHNQYIASLEAELQRMRDEMAHQLQEYQGLMDIKVSLDLEIAAYDKLLCGEERRLNIESPGRPTTDSGISSNGSHLTASASSRSGRVTPSGRRSATPGISGSSAVKRRRTVIDESEDRTLSEYSVNAAAKGDLEIIEADVEGRFIKLHNKGTEEINLTGWQLTRIAGDEELAFKFSRGSKVLGGASVTIWSVDAGTAHDPPNNLVMKKKWPVANSMRSVLANADKEDVASYDRVRANVSSHTSRHRSSGTPSTGFTLGSGAGSTGVRSLFSLLF | no binding |  |  |  | 
